The supplement of paper PMC7661543
The effect of the compound repeats well; differences between the knockouts mostly do not.

Experiments:
Test in all cases: relative cell number vs DMSO control (72 h) (% of DMSO); higher = less growth inhibition (more cells)
MDA-MB-231 = system: MDA-MB-231
Method: (§1)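 QMAP-Seq: a pool of 5 breast cancer cell lines (ZR-75-1, SKBR3, HCC-38, MDA-MB-231, BT-20), each carrying 12 doxycycline-inducible Cas9 sgRNA perturbations (11 knockouts plus non-targeting sgNT), was treated with compounds for 72 h at four 10-fold doses (10 nM-10 uM or 1 nM-1 uM range). Barcodes were amplified and sequenced, and cell number was interpolated from 293T spike-in standard curves. The result is expressed as % of the median of DMSO wells. Two biological replicates.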

ZR-75-1 = system: ZR-75-1
Method: as §1

SKBR3 = system: SKBR3
Method: as §1

CCOC(=O)CCNc1cc(N2CCc3ccccc3CC2)nc(-c2ccccn2)n1 [GSKJ4]
relative cell number
Conditions	MDA-MB-231	SKBR3	ZR-75-1
sgRNA knockout: sgATF3, 10 nM	121	98.8	105
sgRNA knockout: sgATF3, 100 nM	107	101	94.2
sgRNA knockout: sgATF3, 1000 nM	92.5	93.5	97.7
sgRNA knockout: sgATF3, 10000 nM	30.4	86.6	27.9
sgRNA knockout: sgATF4, 10 nM	100	94.1	145
sgRNA knockout: sgATF4, 100 nM	126	97.1	139
sgRNA knockout: sgATF4, 1000 nM	87.9	101	71.9
sgRNA knockout: sgATF4, 10000 nM	51.5	71.1	38.7
sgRNA knockout: sgATF6, 10 nM	125	74.2	70.8
sgRNA knockout: sgATF6, 100 nM	121	93.2	106
sgRNA knockout: sgATF6, 1000 nM	78.6	93.8	98.06
sgRNA knockout: sgATF6, 10000 nM	35.1	78.1	38.4
sgRNA knockout: sgATG7, 10 nM	88.6	107	96.3
sgRNA knockout: sgATG7, 100 nM	118	80	91.7
sgRNA knockout: sgATG7, 1000 nM	74.7	98.1	120
sgRNA knockout: sgATG7, 10000 nM	35.8	76.1	21.2
sgRNA knockout: sgERN1, 10 nM	88.7	109	104
sgRNA knockout: sgERN1, 100 nM	103	89.8	98.3
sgRNA knockout: sgERN1, 1000 nM	96.7	101	87.4
sgRNA knockout: sgERN1, 10000 nM	40.9	116	46.1
sgRNA knockout: sgHSF1, 10 nM	92.7	88.8	–
sgRNA knockout: sgHSF1, 100 nM	121	81.64	–
sgRNA knockout: sgHSF1, 1000 nM	85.3	84.5	–
sgRNA knockout: sgHSF1, 10000 nM	34.2	94	–
sgRNA knockout: sgHSF2, 10 nM	97.8	79.5	94.2
sgRNA knockout: sgHSF2, 100 nM	131	107	85.2
sgRNA knockout: sgHSF2, 1000 nM	96.4	110	118
sgRNA knockout: sgHSF2, 10000 nM	47.2	110	28.4
sgRNA knockout: sgKEAP1, 10 nM	77.9	88.5	–
sgRNA knockout: sgKEAP1, 100 nM	112	89.9	–
sgRNA knockout: sgKEAP1, 1000 nM	88.5	88.4	–
sgRNA knockout: sgKEAP1, 10000 nM	49.4	101	–
sgRNA knockout: sgNFE2L2, 10 nM	99.8	91.8	92.4
sgRNA knockout: sgNFE2L2, 100 nM	104	104	145.3
sgRNA knockout: sgNFE2L2, 1000 nM	91.4	85.7	95.2
sgRNA knockout: sgNFE2L2, 10000 nM	39.5	90.9	32.9
sgRNA knockout: sgSLC35F2, 10 nM	98.4	103.37	72.3
sgRNA knockout: sgSLC35F2, 100 nM	100.6	98.5	101
sgRNA knockout: sgSLC35F2, 1000 nM	102	102	110
sgRNA knockout: sgSLC35F2, 10000 nM	33.7	84.2	37.9
sgRNA knockout: sgXBP1, 10 nM	110	106	112
sgRNA knockout: sgXBP1, 100 nM	128	129	107
sgRNA knockout: sgXBP1, 1000 nM	103	92.2	118
sgRNA knockout: sgXBP1, 10000 nM	39.3	64.6	32.2

COc1cc2ncnc(Nc3ccc(F)c(Cl)c3)c2cc1OCCCN1CCOCC1 [Gefitinib]
relative cell number
Conditions	MDA-MB-231	SKBR3	ZR-75-1
sgRNA knockout: sgATF3, 10 nM	109	107	85.8
sgRNA knockout: sgATF3, 100 nM	111	93	88.4
sgRNA knockout: sgATF3, 1000 nM	113	70.2	74.5
sgRNA knockout: sgATF3, 10000 nM	89.6	37.4	56.6
sgRNA knockout: sgATF4, 10 nM	123	78	78.9
sgRNA knockout: sgATF4, 100 nM	101	90.5	105
sgRNA knockout: sgATF4, 1000 nM	85.4	60	76.7
sgRNA knockout: sgATF4, 10000 nM	71.7	29.9	66.2
sgRNA knockout: sgATF6, 10 nM	112	89.6	69.3
sgRNA knockout: sgATF6, 100 nM	110	80	108
sgRNA knockout: sgATF6, 1000 nM	82.4	76.3	76.6
sgRNA knockout: sgATF6, 10000 nM	75.7	32.2	52.9
sgRNA knockout: sgATG7, 10 nM	92	74.5	77
sgRNA knockout: sgATG7, 100 nM	91.4	110	66.5
sgRNA knockout: sgATG7, 1000 nM	107	72.8	56.8
sgRNA knockout: sgATG7, 10000 nM	82.7	33.4	56.3
sgRNA knockout: sgERN1, 10 nM	95.1	73.5	85
sgRNA knockout: sgERN1, 100 nM	96.4	94.4	93.3
sgRNA knockout: sgERN1, 1000 nM	96	63.2	72.6
sgRNA knockout: sgERN1, 10000 nM	69.003	30.7	63.9
sgRNA knockout: sgHSF1, 10 nM	79.4	78.9	–
sgRNA knockout: sgHSF1, 100 nM	94.5	83.3	–
sgRNA knockout: sgHSF1, 1000 nM	97.9	52.3	–
sgRNA knockout: sgHSF1, 10000 nM	81.4	36	–
sgRNA knockout: sgHSF2, 10 nM	98.9	79.3	71.6
sgRNA knockout: sgHSF2, 100 nM	96.6	101	88.4
sgRNA knockout: sgHSF2, 1000 nM	101	79.6	83.5
sgRNA knockout: sgHSF2, 10000 nM	68.5	29.5	64.8
sgRNA knockout: sgKEAP1, 10 nM	86.9	78.4	–
sgRNA knockout: sgKEAP1, 100 nM	99.7	103	–
sgRNA knockout: sgKEAP1, 1000 nM	91.9	69.9	–
sgRNA knockout: sgKEAP1, 10000 nM	94.3	31.7	–
sgRNA knockout: sgNFE2L2, 10 nM	95.3	86.7	82.31
sgRNA knockout: sgNFE2L2, 100 nM	116	83.2	94
sgRNA knockout: sgNFE2L2, 1000 nM	84.3	67.4	76.6
sgRNA knockout: sgNFE2L2, 10000 nM	71.7	35.91	53.6
sgRNA knockout: sgSLC35F2, 10 nM	103	69	61.3
sgRNA knockout: sgSLC35F2, 100 nM	104	94	71.6
sgRNA knockout: sgSLC35F2, 1000 nM	102	63.1	57.1
sgRNA knockout: sgSLC35F2, 10000 nM	66.6	29.1	70.7
sgRNA knockout: sgXBP1, 10 nM	100	118	80.2
sgRNA knockout: sgXBP1, 100 nM	112	91.4	88.1
sgRNA knockout: sgXBP1, 1000 nM	113	67.585	61.8
sgRNA knockout: sgXBP1, 10000 nM	81.6	25.3	54.5
